In PubChem BioAssay AID2685 (National Center for Advancing Translational Sciences (NCATS), 2010):
The whole screen tested about 320,000 compounds, of which about 2,100 (0.66%) were called active. Inconclusive means that the source gave no clear call. Such entries were picked first, then a sample of the others. The call rests on the fitted dose curve; in most records, active means well fitted inhibition curve with a large enough effect in the signal ratio, with a control signal flat (not every such curve was filed as active); inconclusive means small, poorly fitted or top-dose-only effect, or effect the other way, or a change in a side signal; inactive means flat fitted curve, though single readings scatter; the % refers to the signal ratio. A potency beside an inconclusive call is a rough fit, not a confirmed value.

test: qHTS Assay for Lipid Storage Modulators in Drosophila S3 Cells; conditions: BODIPY lipid droplet fluorescence, 18-24 h, cells fed with added oleic acid; lipid storage change, negative = inhibition: at 46.1 µM (top of the series) unless noted
Excerpt: NIH Molecular Libraries Probe Production Centers Network [MLPCN] NIH Chemical Genomics Center [NCGC] MLPCN Grant: 1 R03 MH085686-01 Assay Submitter (PI): Beller, Mathias; Max-Planck-Institut fur Biophysikalische Chemie NCGC Assay Overview: Storing lipids as a reservoir for energy or the anabolism of elementary metabolites is a common feature of probably all cells and is conserved from bacteria to humans. The universal cellular lipid storage organelle is the so-called lipid storage droplet (LD). Although ubiquitous, LDs share a simple structure composed of a hydrophobic core that harbors the storage lipids, which is shielded by a droplet-specific phospholipid monolayer to which proteins are attached. The current model of LD biogenesis involves an incorporation of the lipid core into the membrane leaflets of the endoplasmic reticulum (ER) followed by a subsequent budding-like maturation of a LD, which ultimately pinches off. Once released, LD volume can increase by localized lipogenesis or fusion of existing droplet. Storage lipids are re-mobilized enzymatically by lipase activity. Lipase regulation in the adipocyte is heavily studied and involves multiple components including catecholamine signaling, the LD-associated proteins Perilipin and comparative gene identification (CGI-58) and at least two lipases named hormone sensitive lipase (HSL) and adipocyte triglyceride lipase (ATGL). LD regulation outside of the adipocyte is poorly understood and only few components are known. However, there is an urgent need to learn more about ectopic fat depots as mislocalized storage of lipids, for example in the liver or muscle, is an eminent health problem associated with insulin resistance or the metabolic syndrome. We developed a laser-scanning cytometer assay to enable 1,536-well screening and combined the results of the small molecules screen with an RNAi database based on lipid storage.
Triacsin C (Sigma-Aldrich T-4540), an inhibitor of long-chain fatty acyl CoA synthetase that blocks synthesis of triglycerides, was used as a positive control for lipid under-storage. A total of 23 nL of compound solution of different concentrations were transferred to the assay plates using a Kalypsys pin tool equipped with a 1,536-pin array containing 10-nL slotted pins (FP1S10, 0.457-mm diameter, 50.8 mm long; V&P Scientific). One microliter of oleic acid (400 uM) was added, and the plate was lidded with stainless steel rubber gasket lined lids containing pinholes. […] Fluorescence was detected by excitation of the fluorophores with a 488-nm laser on an Acumen Explorer (TTP Lab Tech). The total intensity in channel 2 (500-530 nm) reflected lipid droplet accumulation. Cells were detected using channel 3 (575-640 nm) with 5-um width and 100-um depth filters. The ratio of the number of objects in PMT channel 2 over the number of objects in PMT channel 3 was also calculated. Percent activity was computed relative to an internal control (100% inhibited lipid droplet deposition due to the presence of 20 uM Triacsin C), which was added to 32 wells/plate.
On the % scale 0 is the no-effect control and ±100 the full control effect; potency means the concentration at half of the fitted maximal effect.

Row | Structure (SMILES) | lipid storage change, negative = inhibition | Potency | outcome
1 | O=C1c2ccccc2C(Nc2ccccc2)N1c1cccnc1 (configuration not stated) | inconclusive: 0.106% | – | –
2 | CCOc1cc(/C=N/NC(=O)C(=O)NCc2cccnc2)ccc1O | inconclusive: 84.8% | – | –
3 | COC(=O)c1ccccc1NC(=O)c1cc(-c2ccc(C)cc2)on1 | inconclusive: -115% | – | –
4 | CCCC(=O)Nc1ccccc1N1CCN(C(=O)c2ccccc2)CC1 | – | inconclusive: 0.731 µM [activator, single point] | –
5 | COc1cc(CCC(=O)OCC(=O)NC2CCCC(C)C2C)cc(OC)c1OC (configuration not stated) | inconclusive: -47.4% | – | –
6 | C=CC(=O)NCC1OCCc2ccccc21 (configuration not stated) | inconclusive: 21.1% | – | –
7 | CCn1cnc2cc([N+](=O)[O-])ccc21 | inconclusive: 4.18% | – | –
8 | Cc1ccc(OCCn2c3ccccc3n3nc(C)c(=O)nc23)cc1 | inconclusive: -23.9% | – | –
9 | CN(CC(=O)O)S(=O)(=O)c1ccc2c(c1)n(C)c(=O)c(=O)n2C | inconclusive: 10.6% | – | –
10 | CCn1c(C)cc(C(=O)CN2C(=O)c3ccccc3S2(=O)=O)c1C | – | inconclusive: 4.61 µM [activator, single point] | –
11 | CCOc1ccc(-c2c(C(=O)N/N=C/c3ccc(O)cc3)nnn2-c2nonc2N)cc1 | inconclusive: 2.68% | – | –
12 | O=C(NC(=S)N1CCc2ccccc21)C1CCC1 | inconclusive: -7.51% [at 9.22 µM] | – | –
13 | COc1ccc(N2CCCCn3c2nc2c3c(=O)[nH]c(=O)n2C)cc1 | inconclusive: 6.3% | – | –
14 | Cc1ccc(NC(=O)CNS(=O)(=O)c2ccc(F)cc2)cc1C | – | inconclusive: 6.51 µM [falling, single point] | –
15 | CCOC(=O)c1cc(C(=O)OCC)c2cc(Br)ccc2n1 | inconclusive: -1.94% | – | –
16 | c1ccc(-c2cncnc2)cc1 | – | – | inactive [at 46.1 µM]
17 | N#Cc1c(NC(=O)C2CC(c3c(F)cccc3Cl)=NO2)sc2c1CCC2 (configuration not stated) | inconclusive: 27.3% | – | –
18 | Cc1sc2ncn(CC(=O)N3CCC(C(N)=O)CC3)c(=O)c2c1S(=O)(=O)N1CCOCC1 | inconclusive: 20.4% | – | –
19 | COc1cc2c(cc1OC)C(c1ccco1)CC(=O)N2 (configuration not stated) | inconclusive: 18.1% | – | –

Look-ups from the results shown.
COc1cc2c(cc1OC)C(c1ccco1)CC(=O)N2 (configuration not stated) | lipid storage change, negative = inhibition: inconclusive: 18.1%
Cc1ccc(NC(=O)CNS(=O)(=O)c2ccc(F)cc2)cc1C | Potency: inconclusive: 6.51 µM [falling, single point]
O=C1c2ccccc2C(Nc2ccccc2)N1c1cccnc1 (configuration not stated) | lipid storage change, negative = inhibition: inconclusive: 0.106%

(next part)

Row | Structure (SMILES) | lipid storage change, negative = inhibition | Potency | outcome
20 | CCn1c(SCCOc2ccc(OC)cc2)nnc1C(CO)NC(=O)c1ccc(OC)cc1 (configuration not stated) | – | inconclusive: 2.91 µM [falling, single point] | –
21 | Cn1ccnc1SCC(=O)c1ccc(C#N)cc1 | inconclusive: -1.25% | – | –
22 | O=C(Nc1ccc(S(=O)(=O)N2CCCC2)cc1)C1CCN(S(=O)(=O)c2ccc(F)cc2)CC1 | inconclusive | – | –
23 | Cc1ccc(Cn2nnc3c(=O)[nH]c(C4CCCN(C(=O)Nc5ccc(F)cc5)C4)nc32)cc1 (configuration not stated) | – | inconclusive: 23.1 µM [activator, single point] | –
24 | CCC(Oc1ccccc1)C(=O)Nc1cc(C(F)(F)F)ccc1N1CCOCC1 (configuration not stated) | inconclusive: 32.8% | – | –
25 | Cc1ccc(CCNC(=O)C2CCCN(S(C)(=O)=O)C2)cc1 (configuration not stated) | inconclusive: -10.6% | – | –
26 | CC(C)c1csc(CN2CCC(CO)(Cc3cccc(F)c3)CC2)n1 | inconclusive: 5.03% | – | –
27 | Cc1cccc(C(=O)OCC(=O)N2CCC(c3ccccc3)=N2)c1O | inconclusive: 8.88% | – | –
28 | COc1ccc(N(C(=O)c2cnccn2)C(C(=O)NC2CCCCC2)c2ccccc2)cc1 (configuration not stated) | – | inconclusive: 6.51 µM [activator, single point] | –
29 | Cc1c(C(=O)Nc2ccc(Cl)cc2)c2ccccn2c1C(=O)c1ccc([N+](=O)[O-])cc1 | inconclusive: 5.14% | – | –
30 | CCc1ccc2[nH]c(=O)c(C(c3nnnn3Cc3ccc(OC)cc3)N3CCOCC3)cc2c1 (configuration not stated) | – | inconclusive: 0.291 µM [activator, partial curve, poor fit] | –
31 | COc1ccccc1NS(=O)(=O)c1cc(NC(=O)c2ccc3ccccc3n2)ccc1Cl | – | inconclusive: 0.651 µM [activator, partial curve] | –
32 | CC(C)(C)NC(=O)CSc1nnc(NC(=O)CCc2ccccc2)s1 | – | inconclusive: 8.2 µM [falling, partial curve, poor fit] | –
33 | Cc1ccc(S(=O)(=O)CCc2nc3ccccc3s2)cc1C | – | active: 18.4 µM | –
34 | CCOc1cc(NC(=O)Nc2ccc(F)cc2)c(OCC)cc1NC(=O)CC | inconclusive: 24.2% | – | –
35 | CCOc1cc(C(=O)Nc2cc(OC)cc(OC)c2)ccc1OCC(=O)N1CCOCC1 | inconclusive: 4.3% | – | –
36 | CCN(CC)c1ccc2cc(-c3nc4ccccc4n3C)c(=O)oc2c1 | – | inconclusive: 2.31 µM [cytotoxic, single point] | –
37 | Brc1ccc(CSc2ccc3nnc(-c4ccccn4)n3n2)cc1 | inconclusive: -12.3% | – | –
